Results: paper PMC10519595
No constants are given. Whether binding was seen depends on the method and setting. Sequences can lack the tags named with a protein.

Molecular target: T1, high mobility group box 1 (HMGB1), full length, T18 fusion (T18-HMGB1) (human), P09429
T1 chain: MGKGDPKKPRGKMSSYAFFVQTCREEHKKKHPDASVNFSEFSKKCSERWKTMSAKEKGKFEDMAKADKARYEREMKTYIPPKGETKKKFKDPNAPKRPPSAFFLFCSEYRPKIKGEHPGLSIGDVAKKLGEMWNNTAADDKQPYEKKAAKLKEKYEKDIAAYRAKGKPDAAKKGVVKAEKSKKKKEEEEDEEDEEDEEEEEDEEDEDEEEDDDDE
Test: two-hybrid
Settings: remark: other sources report otherwise

B1: high mobility group box 1 (HMGB1), full length, T18 fusion (T18-HMGB1), P09429 1-215 (protein)
chain: T1 chain
  binding: no binding
